Results are given in words; binding and its absence hold for the method and conditions named. Binding seen in cells or lysates may run through a third protein. Binding can be weak; no strength is given. Where a sequence is shown, tags or fusion partners need not be part of it.
Target: EGFR-ICD-HA (EGFR intracellular domain)
Test: co-IP; HEK-293T cells transfected with 3 ug of each plasmid for 48 h; lysates in WB/IP lysis buffer incubated with anti-Flag or anti-HA beads overnight at 4 °C; Western blot

binding: binds
B1: DCBLD1-Flag (discoidin, CUB and LCCL domain containing 1, full length) (protein, UniProt Q8N8Z6 35-715)
chain: EELGDGCGHLVTYQDSGTMTSKNYPGTYPNHTVCEKTITVPKGKRLILRLGDLDIESQTCASDYLLFTSSSDQYGPYCGSMTVPKELLLNTSEVTVRFESGSHISGRGFLLTYASSDHPDLITCLERASHYLKTEYSKFCPAGCRDVAGDISGNMVDGYRDTSLLCKAAIHAGIIADELGGQISVLQRKGISRYEGILANGVLSRDGSLSDKRFLFTSNGCSRSLSFEPDGQIRASSSWQSVNESGDQVHWSPGQARLQDQGPSWASGDSSNNHKPREWLEIDLGEKKKITGIRTTGSTQSNFNFYVKSFVMNFKNNNSKWKTYKGIVNNEEKVFQGNSNFRDPVQNNFIPPIVARYVRVVPQTWHQRIALKVELIGCQITQGNDSLVWRKTSQSTSVSTKKEDETITRPIPSEETSTGINITTVAIPLVLLVVLVFAGMGIFAAFRKKKKKGSPYGSAEAQKTDCWKQIKYPFARHQSAEFTISYDNEKEMTQKLDLITSDMADYQQPLMIGTGTVTRKGSTFRPMDTDAEEAGVSTDAGGHYDCPQRAGRHEYALPLAPPEPEYATPIVERHVLRAHTFSAQSGYRVPGPQPGHKHSLSSGGFSPVAGVGAQDGDYQRPHSAQPADRGYDRPKAVSALATESGHPDSQKPPTHPGTSDSYSAPRDCLTPLNQTAMTALL
